Assay results from PMC12175430.
No constants are given. Whether binding was seen depends on the method and setting. In cells and extracts the contact can be indirect. Some results given as binding are weak or reduced against the parent protein; the word gives no strength.

Biological target: T1, Epithelial splicing regulatory protein 1 (UniProt Q6NXG1)
T1 sequence: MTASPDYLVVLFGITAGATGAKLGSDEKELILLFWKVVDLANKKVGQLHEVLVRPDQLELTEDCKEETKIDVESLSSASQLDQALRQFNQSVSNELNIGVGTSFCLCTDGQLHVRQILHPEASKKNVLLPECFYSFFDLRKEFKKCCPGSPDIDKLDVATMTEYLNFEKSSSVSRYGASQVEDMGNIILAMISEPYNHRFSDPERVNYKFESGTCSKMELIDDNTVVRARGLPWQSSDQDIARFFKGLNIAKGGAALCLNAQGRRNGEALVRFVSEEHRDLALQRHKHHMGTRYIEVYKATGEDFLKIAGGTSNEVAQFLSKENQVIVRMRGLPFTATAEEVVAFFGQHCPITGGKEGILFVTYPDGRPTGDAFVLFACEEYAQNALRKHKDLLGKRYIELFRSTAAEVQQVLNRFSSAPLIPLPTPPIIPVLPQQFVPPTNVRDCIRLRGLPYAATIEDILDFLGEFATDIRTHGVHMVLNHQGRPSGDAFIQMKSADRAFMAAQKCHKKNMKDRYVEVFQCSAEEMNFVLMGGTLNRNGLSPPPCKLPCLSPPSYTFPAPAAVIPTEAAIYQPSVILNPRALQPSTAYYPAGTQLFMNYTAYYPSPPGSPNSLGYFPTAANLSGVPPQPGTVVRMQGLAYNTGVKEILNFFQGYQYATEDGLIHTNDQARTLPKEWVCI
Experiment: co-IP; cells lysed in IP buffer with protease inhibitor; lysates incubated with antibodies overnight at 4 °C, then with protein A/G magnetic beads overnight at 4 °C; washed with PBST; Western blotting; cells and precipitating antibody not stated

binding: binds
B1: 7-dehydrocholesterol reductase (protein, UniProt Q9UBM7 1-475)
chain: MAAKSQPNIPKAKSLDGVTNDRTASQGQWGRAWEVDWFSLASVIFLLLFAPFIVYYFIMACDQYSCALTGPVVDIVTGHARLSDIWAKTPPITRKAAQLYTLWVTFQVLLYTSLPDFCHKFLPGYVGGIQEGAVTPAGVVNKYQINGLQAWLLTHLLWFANAHLLSWFSPTIIFDNWIPLLWCANILGYAVSTFAMVKGYFFPTSARDCKFTGNFFYNYMMGIEFNPRIGKWFDFKLFFNGRPGIVAWTLINLSFAAKQRELHSHVTNAMVLVNVLQAIYVIDFFWNETWYLKTIDICHDHFGWYLGWGDCVWLPYLYTLQGLYLVYHPVQLSTPHAVGVLLLGLVGYYIFRVANHQKDLFRRTDGRCLIWGRKPKVIECSYTSADGQRHHSKLLVSGFWGVARHFNYVGDLMGSLAYCLACGGGHLLPYFYIIYMAILLTHRCLRDEHRCASKYGRDWERYTAAVPYRLLPGIF
